Test results from PubChem BioAssay AID256 (DTP/NCI, 2004).
The list does not hold the whole screen: it is rich in T/C values a quarter to a half above the control, in often repeated tests (any T/C) and in doses without a T/C. Further doses and runs are listed elsewhere. T/C: endpoint of the treated group in % of that of the vehicle group. Some doses have a count of surviving animals in place of a T/C: the source holds a T/C of zero for them, seemingly a mark for toxic or unscored doses. Some survivor counts are full or nearly so, which does not show that the dose was tolerated: survival well below the control is almost never listed, so the zero probably covers shortened survival too. Survivors were counted at the toxicity check, usually on the fifth day, unless a day is given; later deaths do not show. Schedule codes are those of the source, taken here to give the interval after Q, in days (D) or hours (H), and the number of doses after X. Some entries were tested several times; the results are listed from low to high. For survival time, the PubChem record calls one and a half times the control and up active, and a quarter to a half above the control has no call in these data; cut-offs in other NCI protocols can differ. Some T/C values are followed by the survivors on the day toxicity was checked, most often the fifth; without a count, all were alive then.

Tested on: CD2F1 mice, L1210 leukemia ip, survival T/C
Assay: NCI In Vivo Anticancer Drug Screen. Data for tumor model L1210 Leukemia (intraperitoneal) in CD2F1 (CDF1) mice
Conditions: higher T/C = longer survival
How it was run: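 Vehicle-treated tumor-bearing mice served as controls (C) for compound-treated mice (T). Reported figure is T divided by C.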

[1] = T/C endpoint: mean survival time, dose: 200.0 mg/kg/injection, schedule: Q04DX003 (ip), vehicle: saline with Tween-80
[2] = T/C endpoint: mean survival time, dose: 400.0 mg/kg/injection, schedule: Q04DX003 (ip), vehicle: saline with Tween-80
[3] = T/C endpoint: mean survival time, dose: 600.0 mg/kg/injection, schedule: Q01DX009 (ip), vehicle: saline with Tween-80
[4] = T/C endpoint: mean survival time, dose: 200.0 mg/kg/injection, schedule: Q01DX001 (ip), vehicle: carboxymethylcellulose (CMC)
[5] = T/C endpoint: mean survival time, dose: 200.0 mg/kg/injection, schedule: Q04DX002 (ip), vehicle: saline with Tween-80
[6] = T/C endpoint: mean survival time, dose: 400.0 mg/kg/injection, schedule: Q04DX002 (ip), vehicle: saline with Tween-80
[7] = T/C endpoint: mean survival time, dose: 400.0 mg/kg/injection, schedule: Q04DX003 (ip), vehicle: saline

SMILES: COc1ccc2[nH]cc(CCN(C)C)c2c1
- survivor count (T/C endpoint: mean survival time, dose: 100.0 mg/kg/injection, schedule: Q04DX003 (ip), vehicle: saline with Tween-80): 6 of 6
- survivor count [1]: 6 of 6
- survivor count [2]: 5 of 6

SMILES: Cc1ccc(NCC2(/N=C/c3ccccc3)OC(CO)C(O)C2O)cc1 (stereo unspecified)
- T/C (T/C endpoint: mean survival time, dose: 177.0 mg/kg/injection, schedule: Q01DX009 (ip), vehicle: Klucel (hydroxypropylcellulose) (HPC)): 125 % of control
- T/C (T/C endpoint: mean survival time, dose: 266.0 mg/kg/injection, schedule: Q01DX009 (ip), vehicle: saline with Tween-80): 130 % of control
- T/C (T/C endpoint: mean survival time, dose: 400.0 mg/kg/injection, schedule: Q01DX009 (ip), vehicle: saline with Tween-80): 131 % of control [5 of 6 alive]
- survivor count (T/C endpoint: mean survival time, dose: 600.0 mg/kg/injection, schedule: Q01DX009 (ip), vehicle: Klucel (hydroxypropylcellulose) (HPC)): 4 of 6 and 6 of 6
- survivor count [3]: 4 of 6

SMILES: CCCCCCC1CCCCN1 (stereo unspecified)
- survivor count (T/C endpoint: mean survival time, dose: 100.0 mg/kg/injection, schedule: Q04DX003 (ip), vehicle: Klucel (hydroxypropylcellulose) (HPC)): 0 of 3
- survivor count (T/C endpoint: mean survival time, dose: 200.0 mg/kg/injection, schedule: Q04DX003 (ip), vehicle: Klucel (hydroxypropylcellulose) (HPC)): 0 of 3
- survivor count (T/C endpoint: mean survival time, dose: 400.0 mg/kg/injection, schedule: Q04DX003 (ip), vehicle: Klucel (hydroxypropylcellulose) (HPC)): 0 of 3

SMILES: O=[N+]([O-])c1c[c]([Hg][Cl])c(O)[c]([Hg][Cl])c1
- survivor count (T/C endpoint: mean survival time, dose: 25.0 mg/kg/injection, schedule: Q04DX003 (ip), vehicle: saline with Tween-80): 3 of 6
- survivor count (T/C endpoint: mean survival time, dose: 50.0 mg/kg/injection, schedule: Q04DX003 (ip), vehicle: saline with Tween-80): 2 of 6

SMILES: O=c1[nH]c(=O)n(C2SC(CO)C(O)C2O)cc1F (stereo unspecified)
- T/C [3]: 128 % of control

SMILES: CN(C)/N=C(\CBr)c1ccc([N+](=O)[O-])cc1
- survivor count (T/C endpoint: mean survival time, dose: 400.0 mg/kg/injection, schedule: Q01DX001 (ip), vehicle: saline): 3 of 6

SMILES: S=C(NCc1ccccc1)Nc1ncn[nH]1
- survivor count [4]: 5 of 5

SMILES: Cc1ccc(S(=O)(=O)NC(=O)C2C(=O)CC3(CCCCC3)CC2=O)cc1
- survivor count (T/C endpoint: median survival time, dose: 200.0 mg/kg/injection, schedule: Q01DX009 (ip), vehicle: Klucel (hydroxypropylcellulose) (HPC)): 1 of 6
- survivor count (T/C endpoint: median survival time, dose: 400.0 mg/kg/injection, schedule: Q01DX009 (ip), vehicle: Klucel (hydroxypropylcellulose) (HPC)): 0 of 6

SMILES: O=C(CCl)c1cc(Cl)c(O)c(Cl)c1
- survivor count (T/C endpoint: mean survival time, dose: 100.0 mg/kg/injection, schedule: Q01DX001 (ip), vehicle: carboxymethylcellulose (CMC)): 2 of 4
- survivor count [4]: 1 of 4
- survivor count (T/C endpoint: mean survival time, dose: 400.0 mg/kg/injection, schedule: Q01DX001 (ip), vehicle: carboxymethylcellulose (CMC)): 0 of 4

SMILES: Cc1nn(-c2ccc(Cl)cc2)c(C)c1N=O
- survivor count (T/C endpoint: mean survival time, dose: 200.0 mg/kg/injection, schedule: Q01DX001 (ip), vehicle: saline with Tween-80): 1 of 6
- survivor count (T/C endpoint: mean survival time, dose: 400.0 mg/kg/injection, schedule: Q01DX001 (ip), vehicle: saline with Tween-80): 0 of 6

SMILES: COc1cccc(CN2CCN(N)CC2)c1
- survivor count (T/C endpoint: mean survival time, dose: 400.0 mg/kg/injection, schedule: Q01DX009 (ip), vehicle: Klucel (hydroxypropylcellulose) (HPC)): 0 of 6

SMILES: O=C(CCl)Nc1ccc(-c2c(NC(=O)CCl)ncc3ccccc23)cc1
- survivor count (T/C endpoint: mean survival time, dose: 300.0 mg/kg/injection, schedule: Q04DX003 (ip), vehicle: other): 0 of 3

SMILES: COc1cccc2c1C(=O)c1c(O)c3c(c(O)c1C2=O)C[C@@](O)(C(C)O)C[C@@H]3OC1CC(N)C(O)C(C)O1 (stereo partly specified)
- T/C (T/C endpoint: mean survival time, dose: 1.8 mg/kg/injection, schedule: Q01DX009 (ip), vehicle: saline): 126 % of control
- T/C (T/C endpoint: mean survival time, dose: 3.0 mg/kg/injection, schedule: Q01DX009 (ip), vehicle: saline): 132 % of control
- T/C (T/C endpoint: mean survival time, dose: 5.0 mg/kg/injection, schedule: Q01DX009 (ip), vehicle: saline): 126 % of control
- T/C (T/C endpoint: mean survival time, dose: 5.0 mg/kg/injection, schedule: Q04DX003 (ip), vehicle: saline): 126 % of control
- T/C (T/C endpoint: mean survival time, dose: 8.0 mg/kg/injection, schedule: Q01DX009 (ip), vehicle: saline): 133 % of control
- T/C (T/C endpoint: mean survival time, dose: 8.0 mg/kg/injection, schedule: Q04DX003 (ip), vehicle: saline): 137 % of control
- T/C (T/C endpoint: mean survival time, dose: 13.3 mg/kg/injection, schedule: Q04DX003 (ip), vehicle: saline): 146 % of control
- T/C (T/C endpoint: mean survival time, dose: 22.2 mg/kg/injection, schedule: Q04DX003 (ip), vehicle: saline): 136 % of control
- T/C (T/C endpoint: mean survival time, dose: 37.0 mg/kg/injection, schedule: Q04DX003 (ip), vehicle: saline): 134 % of control

SMILES: Cc1ccc(S(=O)(=O)C[n+]2ccccc2N)cc1
- survivor count [5]: 3 of 3
- survivor count [6]: 0 of 3

SMILES: Cc1nc2c(nc1C)C(=O)C(N1CCOCC1)=CC2=O
- survivor count (T/C endpoint: mean survival time, dose: 50.0 mg/kg/injection, schedule: Q01DX001 (ip), vehicle: saline): 1 of 6

SMILES: CNC(=O)c1ccc[n+](CC(=O)NCc2ccccc2)c1
- survivor count (T/C endpoint: mean survival time, dose: 200.0 mg/kg/injection, schedule: Q04DX003 (ip), vehicle: saline): 3 of 6
- survivor count [7]: 0 of 6

SMILES: Cc1nc(N)nc2c1CCC(=O)N2C
- survivor count (T/C endpoint: mean survival time, dose: 400.0 mg/kg/injection, schedule: Q01DX001 (ip), vehicle: Klucel (hydroxypropylcellulose) (HPC)): 0 of 6

SMILES: O=C1C(=O)C(Br)=C(Br)C(Br)=C1Br
- survivor count [2]: 6 of 6

SMILES: COc1ccc(NC2=C(C)C(=O)C3=C(C2=O)[C@H](COC(N)=O)[C@]2(OC)[C@@H]4N[C@@H]4CN32)cc1OC
- T/C (T/C endpoint: median survival time, dose: 1.5 mg/kg/injection, schedule: Q01DX001 (ip), vehicle: water): 125 % of control
- T/C (T/C endpoint: median survival time, dose: 6.0 mg/kg/injection, schedule: Q01DX001 (ip), vehicle: water): 134 % of control
- T/C (T/C endpoint: median survival time, dose: 12.0 mg/kg/injection, schedule: Q01DX001 (ip), vehicle: water): 141 and 148 % of control
- survivor count (T/C endpoint: median survival time, dose: 24.0 mg/kg/injection, schedule: Q01DX001 (ip), vehicle: water): 4 of 6

SMILES: NC(CS)=NC1CCCCC1
- survivor count (T/C endpoint: mean survival time, dose: 50.0 mg/kg/injection, schedule: Q04DX002 (ip), vehicle: saline with Tween-80): 0 of 3
- survivor count (T/C endpoint: mean survival time, dose: 100.0 mg/kg/injection, schedule: Q04DX002 (ip), vehicle: saline with Tween-80): 1 of 3
- survivor count [5]: 0 of 3
- survivor count [6]: 0 of 3

SMILES: Cc1ccc(C(C)C)c(OCCCBr)c1
- survivor count [1]: 6 of 6
- survivor count [2]: 2 of 6

SMILES: O=NN(CCCl)C(=O)Nc1ccc(CCO)cc1
- T/C (T/C endpoint: mean survival time, dose: 1.35 mg/kg/injection, schedule: Q01DX009 (ip), vehicle: acetone): 145 % of control [5 of 6 alive]
- T/C (T/C endpoint: mean survival time, dose: 5.0 mg/kg/injection, schedule: Q01DX001 (ip), vehicle: other): 147 % of control
- survivor count (T/C endpoint: mean survival time, dose: 78.0 mg/kg/injection, schedule: Q01DX001 (ip), vehicle: other): 6 of 6

SMILES: C[CH2][Sn]1([CH2]C)[O]C2C(CO)OC(n3cnc4c(N)ncnc43)C2[O]1 (stereo unspecified)
- survivor count (T/C endpoint: mean survival time, dose: 25.0 mg/kg/injection, schedule: Q01DX005 (ip), vehicle: other): 0 of 6
- survivor count (T/C endpoint: mean survival time, dose: 50.0 mg/kg/injection, schedule: Q01DX005 (ip), vehicle: other): 0 of 6
- survivor count (T/C endpoint: mean survival time, dose: 100.0 mg/kg/injection, schedule: Q01DX005 (ip), vehicle: other): 0 of 6
- survivor count (T/C endpoint: mean survival time, dose: 200.0 mg/kg/injection, schedule: Q01DX005 (ip), vehicle: other): 0 of 6

SMILES: CCNC(=S)N(Cc1ccccc1)Cc1ccccc1
- survivor count [1]: 6 of 6

SMILES: CCOC(=O)c1[nH]c(-c2ccccc2)c(-c2ccccc2)c1-c1ccc(OC)cc1
- survivor count (T/C endpoint: mean survival time, dose: 75.0 mg/kg/injection, schedule: Q01DX001 (ip), vehicle: saline): 6 of 6
- survivor count (T/C endpoint: mean survival time, dose: 150.0 mg/kg/injection, schedule: Q01DX001 (ip), vehicle: saline): 6 of 6
- survivor count (T/C endpoint: mean survival time, dose: 300.0 mg/kg/injection, schedule: Q01DX001 (ip), vehicle: saline): 6 of 6

SMILES: CC[C@@]1(OC(=O)CCC(=O)O)C(=O)OCc2c1cc1n(c2=O)Cc2cc3ccccc3nc2-1
- T/C (T/C endpoint: median survival time, dose: 8.79 mg/kg/injection, schedule: Q04HX004 (iv), vehicle: water): 142 % of control
- T/C (T/C endpoint: median survival time, dose: 23.45 mg/kg/injection, schedule: Q04DX002 (ip), vehicle: water): 137 and 142 % of control
- survivor count (T/C endpoint: median survival time, dose: 46.9 mg/kg/injection, schedule: Q04HX004 (iv), vehicle: water): 0 of 6 and 2 of 6

SMILES: N#Cc1cn(C2CCCCC2)c2ncccc12
- survivor count [7]: 1 of 3
